Data source: PubChem BioAssay AID1159584 (Peter MacCallum Cancer Centre, 2016)
Assay: 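Genes that CDH1-null MCF10A cells selectively depend on to survive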 (primary screen). Cell system: human MCF10A breast epithelial cells, parental and CDH1-null. Reagents: siRNA against human genes. Measured: 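Cell viability by CellTiter-Glo ATP luminescence, each line scaled to the mean of mock wells across plates, then CDH1-null over parental ratio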. Scale: CDH1-null / parental viability ratio: higher = CDH1-null cells survive relatively better than parental; CDH1-null viability vs mock: higher = more viable CDH1-null cells; parental viability vs mock: higher = more viable parental cells.
Shown is an unselected part of about 18,000 deposited reagents. The numbers tell different reagents against one gene apart. Not stated in the record: the amount of reagent, the time to read-out.

no.	target gene	reagent	CDH1-null / parental viability ratio	CDH1-null viability vs mock (fraction of mock)	parental viability vs mock (fraction of mock)
1	ARSA (arylsulfatase A)	1	1.1	0.68	0.62
2	H3C1 (H3 clustered histone 1)	1	1.15	0.94	0.82
3	ORC1 (origin recognition complex subunit 1)	1	1	0.8	0.8
4	OR52I2 (olfactory receptor family 52 subfamily I member 2)	1	0.95	0.82	0.86
5	SIMC1 (SUMO interacting motifs containing 1)	1	1.04	0.82	0.79
6	CD37 (CD37 molecule)	1	0.91	0.7	0.77
7	POU6F1 (POU class 6 homeobox 1)	1	0.9	0.88	0.98
8	TFPI (tissue factor pathway inhibitor)	1	0.79	0.77	0.97
9	PSEN2 (presenilin 2)	1	1.2	0.77	0.64
10	TOMM20 (translocase of outer mitochondrial membrane 20)	1	1.28	0.97	0.76
11	FOXI2 (forkhead box I2)	1	0.79	0.68	0.86
12	TRRAP (transformation/transcription domain associated protein)	1	0.97	0.72	0.74
13	PALB2 (partner and localizer of BRCA2)	1	1.02	0.5	0.49
14	PAN3 (poly(A) specific ribonuclease subunit PAN3)	1	1.15	0.97	0.84
15	ELMO2 (engulfment and cell motility 2)	1	1.03	0.71	0.69
16	EN2 (engrailed homeobox 2)	1	0.92	0.74	0.8
17	SIRT6 (sirtuin 6)	1	1.08	1	0.93
18	FSTL1 (follistatin like 1)	1	0.93	1.13	1.22
19	CRYBA4 (crystallin beta A4)	1	0.92	0.8	0.87
20	GTSE1 (G2 and S-phase expressed 1)	1	0.81	0.76	0.94
21	PNMA3 (PNMA family member 3)	1	1.55	0.48	0.31
22	MLX (MAX dimerization protein MLX)	1	0.96	0.91	0.95
23	POLDIP3 (DNA polymerase delta interacting protein 3)	1	0.94	0.88	0.94
24	ZNF429 (zinc finger protein 429)	1	1	0.8	0.8
25	MANBA (mannosidase beta)	1	1.04	0.98	0.94
26	GGT5 (gamma-glutamyltransferase 5)	1	1.05	0.61	0.58
27	COG2 (component of oligomeric golgi complex 2)	1	1.02	0.86	0.84
28	HSD3B7	1	0.91	0.49	0.54
29	MPHOSPH6 (M-phase phosphoprotein 6)	1	0.87	0.78	0.9
30	CLDN14 (claudin 14)	1	1.42	0.78	0.55
31	C11orf40 (chromosome 11 putative open reading frame 40)	1	0.9	0.64	0.71
32	MBTPS1 (membrane bound transcription factor peptidase, site 1)	1	1.28	0.92	0.72
33	RBMXL2 (RBMX like 2)	1	1.11	0.82	0.74
34	AK4 (adenylate kinase 4)	1	1.06	0.55	0.52
35	AK4 (adenylate kinase 4)	2	0.91	0.73	0.8
36	PLCH2 (phospholipase C eta 2)	1	1.11	0.78	0.7
37	SSX7 (SSX family member 7)	1	1	0.6	0.6
38	C9orf40 (chromosome 9 open reading frame 40)	1	0.98	0.61	0.62
39	FZD3 (frizzled class receptor 3)	1	1.33	0.92	0.69
40	MORN5 (MORN repeat containing 5)	1	1.88	1.09	0.58
41	PSAP (prosaposin)	1	0.71	0.44	0.62
42	MAPK8 (mitogen-activated protein kinase 8)	1	1.18	0.9	0.76
43	ANKFN1 (ankyrin repeat and fibronectin type III domain containing 1)	1	0.87	0.83	0.95
44	INS (insulin)	1	1.01	0.91	0.9
45	SSTR5 (somatostatin receptor 5)	1	1.73	0.76	0.44
46	NPEPPS (aminopeptidase puromycin sensitive)	1	1	0.62	0.62
47	CAMTA1 (calmodulin binding transcription activator 1)	1	1.05	0.41	0.39
48	GHR (growth hormone receptor)	1	1	0.93	0.93
49	SLITRK1 (SLIT and NTRK like family member 1)	1	1.11	0.91	0.82
50	H2BC17 (H2B clustered histone 17)	1	0.9	0.65	0.72
51	NCEH1 (neutral cholesterol ester hydrolase 1)	1	1	0.9	0.9
52	POLR2J3 (RNA polymerase II subunit J3)	1	1	0.4	0.4
53	CD160 (CD160 molecule)	1	0.8	0.48	0.6
54	ARHGAP32 (Rho GTPase activating protein 32)	1	1.17	0.94	0.8
55	SNCG (synuclein gamma)	1	1.3	0.82	0.63
56	RNMT (RNA guanine-7 methyltransferase)	1	0.93	1.06	1.14
57	HSPB7 (heat shock protein family B (small) member 7)	1	1.38	0.88	0.64
58	GRIN2C (glutamate ionotropic receptor NMDA type subunit 2C)	1	1.12	0.99	0.88
59	POLR2J (RNA polymerase II subunit J)	1	0.74	0.55	0.74
60	VN1R5 (vomeronasal 1 receptor 5 (gene/pseudogene))	1	0.87	1	1.15
61	SLC17A4	1	1.06	0.9	0.85
62	FARSB (phenylalanyl-tRNA synthetase subunit beta)	1	0.84	0.76	0.9
63	ASS1 (argininosuccinate synthase 1)	1	1.09	1.05	0.96
64	AMBP (alpha-1-microglobulin/bikunin precursor)	1	1.14	0.96	0.84
65	PKNOX2 (PBX/knotted 1 homeobox 2)	1	0.99	0.96	0.97
66	OR4S1 (olfactory receptor family 4 subfamily S member 1)	1	1.23	0.9	0.73
67	ZFAND1 (zinc finger AN1-type containing 1)	1	0.93	0.54	0.58
68	NFATC3 (nuclear factor of activated T cells 3)	1	1.2	1.15	0.96

3 consecutive records from above, for reference:
no.	target gene	reagent	CDH1-null / parental viability ratio	CDH1-null viability vs mock (fraction of mock)	parental viability vs mock (fraction of mock)
45	SSTR5 (somatostatin receptor 5)	1	1.73	0.76	0.44
46	NPEPPS (aminopeptidase puromycin sensitive)	1	1	0.62	0.62
47	CAMTA1 (calmodulin binding transcription activator 1)	1	1.05	0.41	0.39
